In PubChem BioAssay AID1487 (National Center for Advancing Translational Sciences (NCATS), 2009):
Hit rate of the full screen: of about 200,000 compounds, about 25 (0.01%) were called active. This list was built around the results that the source calls inconclusive (neither active nor inactive); the mix of calls is not that of the screen. Calls follow the shape of the dose curve; as a rule, active = well fitted inhibition curve with a large enough effect in the signal ratio, with a control signal flat (not every such curve was filed as active); inconclusive = small, poorly fitted or top-dose-only effect, or effect the other way, or a change in a side signal; inactive = flat fitted curve, though single readings scatter; the % refers to the signal ratio. A potency beside an inconclusive call is a rough fit, not a confirmed value.

Test: qHTS Assay for Modulators of Lamin A Splicing
Details: HeLa LMNA splicing GFP/RFP minigene ratio, 48 h; ratio change, negative = inhibition: at 46.1 µM (top of the series) unless noted
Summary of the method: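 S3 HeLa cells stably expressing lamin A-EGFP splicing minigene plus DsRed2, 600 cells/well, 48 h compound exposure at 37C. Laser-scanning cytometry; analysed as GFP (500-530 nm)/RFP (575-640 nm) total intensity ratio; 0.5% DMSO vehicle.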
% is scaled to controls: 0 for no effect and ±100 for the full control effect; potency is read from the fitted curve at half-maximal effect.

| SMILES | ratio change, negative = inhibition | Potency |
| --- | --- | --- |
| O=C(N/N=C/c1ccco1)c1ccc(NC(=O)C2CC2)cc1 | inconclusive: -18.6% [at 46 µM] | – |
| CCCC[C@@H]1C[C@H]1[C@@H](NC(=O)c1cccs1)c1ccc(Cl)cc1 | – | inconclusive: 25.1 µM [fluorescent, partial curve] |
| CCCn1ncc(CN2CCC(N3CCC(C(=O)N4CCOCC4)CC3)CC2)c1C | inactive | – |
| CCOC(=O)C(Cc1ccccc1)C(=O)Nc1ccc(N(CC)CC)cc1 (stereo unspecified) | inactive | – |
| CNC(=S)N/N=C/c1cn(CCOc2ccccc2OC)c2ccccc12 | – | inconclusive: 35.5 µM [falling, single point] |
| COc1ccc(C(=O)/C=C/C(=O)N(CC(=O)NC2CCCCC2)Cc2cccs2)c(O)c1 | – | inconclusive: 35.5 µM [cytotoxic, single point] |
| CCOC(=O)c1c(C)[nH]c(C2=NNC(=Nc3cccc(Cl)c3)SC2)c1C | – | inconclusive: 20 µM [falling, single point] |
| Cc1ccc(-c2noc(CN(C(=O)C(c3ccccc3)c3ccccc3)C(C)C)n2)cc1 | inconclusive: 11% | – |
| N=C(N)SCc1ccccc1Cl | – | inconclusive: 35.5 µM [fluorescent, single point] |
| COc1ccc(CNc2ccc3cn[nH]c3c2)c(OC)c1OC | inactive | – |
| Cc1ccc(Cl)cc1N1CCN(c2ncnc3onc(C)c23)CC1 | inconclusive: -25.1% [at 46 µM] | – |
| CCCC(=O)Nc1nc2ccc(NC(=O)c3ccccc3F)cc2s1 | – | inconclusive: 3.98 µM [activator, full curve, poor fit] |
| CC(C)(C)C1(O)CC(C(F)(F)F)=NN1C(=O)CCCc1ccccc1 (stereo unspecified) | inconclusive: -31.5% [at 46 µM] | – |
| CCn1c(SCC(=O)Nc2cc(S(=O)(=O)N3CCOCC3)ccc2OC)nnc1-c1ccncc1 | inactive | – |
| N#C/C(=C1\CCCN1)c1ccc2ccccc2n1 | inactive | – |
| O=C(O)c1ccc(NC(=S)NC(=O)c2cccc(COc3ccccc3)c2)cc1 | inconclusive: 70.1% [at 46 µM] | – |
| CCOC(=O)c1cnc2nc(SC)nn2c1N | inactive | – |
| Cc1cc(C)c(/C=N/n2c(C)cc(C)c(C#N)c2=O)c(C)c1 | inactive | – |
| Cc1cccc(OCC(=O)Nc2ccccc2C(F)(F)F)c1 | inactive | – |
| O=C(Nc1ccncc1)C1CC1c1ccccc1 (stereo unspecified) | – | inconclusive: 11.2 µM [falling, partial curve] |
| Cc1cc([N+](=O)[O-])nn1CCCC(=O)Nc1cc(Cl)ccc1Cl | inactive | – |

| SMILES | ratio change, negative = inhibition | Potency |
| --- | --- | --- |
| CCOC(=O)/C(C#N)=C/c1cc(C)n(-c2ccc(Br)cc2)c1C | inactive | – |
| CCCCCCSc1nsc(N)n1 | inconclusive: 7.03% | – |
| COc1ccc(F)cc1S(=O)(=O)NCCc1sc2nc(-c3ccc(F)cc3)nn2c1C | inconclusive: 52.1% [at 46 µM] | – |
| COc1ccc(CNC(=O)CN2C(=O)c3cccnc3Oc3ccc(C)cc32)cc1 | inactive | – |
| Cc1ccc(Cl)cc1NC(=O)CSC(N)=O | inactive | – |
| COc1ccc(Nc2cc(C(=O)NCc3ccccc3OC)c3ccccc3n2)cc1 | inactive | – |
| CN(C)CC(O)COc1cc2ccccc2cc1C(=O)N1CCCCC1 (stereo unspecified) | inactive | – |
| COC(=O)CCC(=O)OC1(C)C(=O)C2=CN(Cc3ccco3)C(c3ccc(OC)cc3)=CC2=C(Br)C1=O (stereo unspecified) | inconclusive: -8.84% [at 9.22 µM] | – |
| Cc1cc(C(=O)NNC(=S)NCc2ccco2)n(C)n1 | inactive | – |
| O=C(COC(=O)c1ccccn1)NC12CC3CC(CC(C3)C1)C2 | inactive | – |
| Cc1ccc(OCC(=O)OCc2cc(=O)n3nc(-c4cccs4)sc3n2)cc1 | inconclusive: 10.2% [at 46 µM] | – |
| CN(C)/C=C1/Sc2ccccc2C1=O | inconclusive: 4.95% | – |
| COc1ccc(C(=O)NCCSc2ccccc2)cc1OC | inconclusive: -24.5% [at 46 µM] | – |
| COc1ccccc1NC(=O)NCc1ccccc1F | inconclusive: 10.7% [at 46 µM] | – |
| CCCC1Cc2c(sc(N)c2C#N)CO1 (stereo unspecified) | inconclusive: 9.8% [at 46 µM] | – |
| COc1ccc(Cl)cc1NC(=O)c1cc2ccc3ccc(C)[nH]c3c2n1 | inactive | – |
| CCC(=O)N1CC2(CC(c3cccc([N+](=O)[O-])c3)=NO2)C[C@H]1C(=O)NCC(N)=O (stereo partly specified) | inactive | – |
| O=C(C1CCC1)N1CCCc2cc(S(=O)(=O)Nc3ccc(F)cc3)ccc21 | inconclusive: -8.18% [at 46 µM] | – |
| O=C(C[n+]1cn(C(F)F)c2ccccc21)c1ccc(OC(F)F)cc1 | – | inconclusive: 35.5 µM [cytotoxic, single point] |
| CC/C(=N\NC(=O)CCC(=O)NCc1ccccc1)c1ccc(O)cc1 | inconclusive: 15.4% [at 46 µM] | – |

Structures from the list above that have a nitro group on carbon, in the order listed:

| SMILES | ratio change, negative = inhibition | Potency |
| --- | --- | --- |
| Cc1cc([N+](=O)[O-])nn1CCCC(=O)Nc1cc(Cl)ccc1Cl | inactive | – |
| CCC(=O)N1CC2(CC(c3cccc([N+](=O)[O-])c3)=NO2)C[C@H]1C(=O)NCC(N)=O (stereo partly specified) | inactive | – |
